From patent US20170189524A1 (IMMUNOQURE, published 2017)
No constants are given. Whether binding was seen depends on the method and setting. Binding calls can cover weak binding; strength is not graded here. One block for each molecule: values may come before it.

Tests used:
[1] = molecular target: T1, Type I IL-20 receptor (IL-20RA/IL-20RB) on transfected HEK 293T MSR cells (human) (UniProt Q9UHF4); assay: LCBA (FIG. 7D)
T1 sequence (looked up) 1: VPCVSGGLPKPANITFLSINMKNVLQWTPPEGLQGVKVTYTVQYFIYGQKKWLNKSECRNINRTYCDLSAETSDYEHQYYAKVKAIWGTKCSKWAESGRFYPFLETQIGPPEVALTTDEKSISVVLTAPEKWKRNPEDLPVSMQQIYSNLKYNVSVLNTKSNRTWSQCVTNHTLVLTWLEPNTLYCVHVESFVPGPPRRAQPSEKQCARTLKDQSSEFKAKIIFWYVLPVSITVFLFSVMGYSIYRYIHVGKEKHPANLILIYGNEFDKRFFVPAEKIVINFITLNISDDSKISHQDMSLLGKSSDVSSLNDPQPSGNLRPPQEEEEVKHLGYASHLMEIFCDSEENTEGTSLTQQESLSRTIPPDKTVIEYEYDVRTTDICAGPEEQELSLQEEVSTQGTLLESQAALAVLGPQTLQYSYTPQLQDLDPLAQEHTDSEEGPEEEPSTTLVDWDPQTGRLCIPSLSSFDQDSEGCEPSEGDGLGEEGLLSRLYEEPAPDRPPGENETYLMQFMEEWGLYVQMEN
T1 sequence (looked up) 2: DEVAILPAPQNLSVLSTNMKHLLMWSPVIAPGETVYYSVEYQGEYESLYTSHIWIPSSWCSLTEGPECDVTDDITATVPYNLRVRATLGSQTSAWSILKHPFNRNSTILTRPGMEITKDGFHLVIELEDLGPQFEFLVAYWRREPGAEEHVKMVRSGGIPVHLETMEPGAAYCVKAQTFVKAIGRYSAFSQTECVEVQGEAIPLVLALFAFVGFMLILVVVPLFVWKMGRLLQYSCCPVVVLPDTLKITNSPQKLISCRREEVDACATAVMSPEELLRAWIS

[2] = molecular target: T1, Type I IL-20 receptor (IL-20RA/IL-20RB) on transfected HEK 293T MSR cells (human); assay: chemiluminescent cellular binding assay (LCBA)
[3] = molecular target: g1 IL-20 (fusion protein of human IL-20 with Gaussia luciferase at the IL-20 N-terminus) (human); assay: LCBA
[4] = molecular target: g1 IL-20 (fusion protein of human IL-20 with Gaussia luciferase at the IL-20 N-terminus) (human); assay: GLuc-sandwich ELISA
[5] = molecular target: g1 IL-20 (fusion protein of human IL-20 with Gaussia luciferase at the IL-20 N-terminus) (human); assay: LCBA (FIG. 7E, 7F)
[6] = molecular target: g1 IL-20 (fusion protein of human IL-20 with Gaussia luciferase at the IL-20 N-terminus) (human); assay: EC 50 ELISA (FIG. 3)
[7] = molecular target: g1 IL-20 (fusion protein of human IL-20 with Gaussia luciferase at the IL-20 N-terminus) (human); assay: chemiluminescent cellular binding assay, IC 50 analysis (FIG. 8)
[8] = molecular target: g1 IL-20 (fusion protein of human IL-20 with Gaussia luciferase at the IL-20 N-terminus) (human); assay: LCBA, antibody 5 µg/ml (FIG. 7F)

- binding [1]: binds
- binding [2]: binds
Molecule: g1 IL-20 (fusion protein of human IL-20 with Gaussia luciferase at the IL-20 N-terminus) (ligand)

- binding [3]: binds
- binding [4]: binds
- binding [5]: binds
- binding [6]: binds
- binding [7]: binds
B1: antibody 20A10 (antibody, human IgG4, kappa, V domains shown)
VH: QVQLVQSGAEVKKPGSSVKVSCKTSGGTFSTSTLSWVRQAPGQGLEWLGGMIPILSRTTYAQKFQGRLTITADEPTSTSYMELSSLKSEDTAVYYCATEGEVSAAHNYYYGMDVWGQGTTVTVSS
VL: DIVLTQSPLYLPVTPGEPASISCRSSQSLLHGNGHNYLDWYLQKPGQSPQLLIYLGSNRASGVPDRFSGSGSGTDFTLKISRVEAEDVGVYYCMQTLHTVFTFGPGTRVDIKR
notes: Recombinant human-derived antibody; also called MAb 20A10; 20A0

- binding [4]: binds
- binding [6]: binds
- binding [8]: binds
B2: antibody 6E11 (antibody, IgG1, V domains shown)
VH: QVQLVQSGAEVKKPGSSVKVSCKASGGTFRNYAINWVRQAPRQGLEWMGSLVPMFTSPTYAQKFRGRVTISADESTATSSMELTSLTSEDTAVYFCSADGYKGGLFYGMNVWGQGTTVTVSS
VL: DIVLTQSPESLAVSLGERATINCKSSQSVLYSSNSKNYLAWFQQKPGQPPKLLIYWASTRESGVPDRFSGSGSGTDFTLTITSLQAEDVAVYYCHQYHTLPRTFGHGTKVEIKR
notes: IgG1; also called MAb 6E11
